# Results reported in PubChem BioAssay AID2685 (National Center for Advancing Translational Sciences (NCATS), 2010).
# The list shows a part of the results. The main result of the screen is listed elsewhere. These columns were measured beside it and carry no call. Compounds called inactive in the main read-out are mostly missing here. Words in brackets tell the shape of the fitted curve; partial curves, single points and poor fits give uncertain potencies.
# Assay: qHTS Assay for Lipid Storage Modulators in Drosophila S3 Cells;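 for cell number change: cells counted by Cell Tracker Red CMTPX staining in the red channel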
# Settings: BODIPY lipid droplet fluorescence, 18-24 h; for cell number change: measured here: cell count max response, cells fed with added oleic acid
# Method in brief: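 Drosophila S3 cells loaded with oleic acid (400 uM, as added) and compounds at several concentrations; lipid droplets imaged by 488-nm laser-scanning cytometry, 500–530 nm intensity and object ratio to cell channel. Percent activity normalized to 20 uM Triacsin C.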
# [1] = measured here: cell number channel AC50, cells fed with added oleic acid
# [2] = measured here: lipid fluorescence (Fed channel) AC50, cells fed with added oleic acid
Compound,cell number change,AC50 [1],AC50 [2]
CCN(CC)S(=O)(=O)c1cccc(C(=O)Nc2cc(C)cc(C)c2)c1,-1.61%,"6.51 µM [falling, single point]","29.1 µM [falling, single point]"
Cc1ccc(C(=O)OCC(=O)N2CC(C)CC(C)C2)cc1S(=O)(=O)N1CCCCC1 (configuration not stated),-18%,–,–
COc1cccc(N2CCN(S(=O)(=O)c3ccc4c(c3)NC(=O)C(C)C(=O)N4)CC2)c1 (configuration not stated),-13.9%,–,–
Cc1cc(C)cc(Oc2ncnc3c2ncn3Cc2c(Cl)cccc2Cl)c1,-30.1%,"29.1 µM [falling, single point]",–
CCCCC(c1nnnn1C1CCCC1)N1CCN(C(=O)c2ccco2)CC1 (configuration not stated),-10.9%,–,"0.13 µM [rising, full curve, poor fit]"
CC1CCN(C(=O)c2nc[nH]c2C(=O)N2CCc3ccccc3C2)CC1,16.5%,"0.366 µM [rising, partial curve, poor fit]",–
CCOC(=O)C(NC(=O)OC(C)C)(Nc1nccs1)C(F)(F)F (configuration not stated),-165%,"29.1 µM [falling, partial curve]",–
O=C(c1oc2ccccc2c1CSCc1ccccc1)N1CCN(c2ncccn2)CC1,-15.9%,–,"10.3 µM [falling, partial curve]"
Nc1nonc1-n1nnc(C(=O)N/N=C/c2cc(Br)ccc2O)c1CSC1=NCCS1,-9.28%,–,"18.4 µM [falling, single point]"
CC(=O)c1ccc(NC(=O)CCSCCC(=O)Nc2ccc(C(C)=O)cc2)cc1,1.76%,–,–
O=c1ccc2ccc(OCCOc3cccc(Cl)c3)cc2o1,36.4%,"20.6 µM [rising, partial curve, poor fit]","1.84 µM [rising, full curve]"
CCN1C(=O)[C@@H]2[C@@H](c3ccc(SC4CCCCC4)cc3)N3CCC[C@@]3(C(=O)OC)[C@@H]2C1=O,-12.9%,–,"0.82 µM [rising, full curve, poor fit]"
O=C(Cn1cnc2cc([N+](=O)[O-])ccc2c1=O)Nc1cccc2ccccc12,11.3%,–,"0.206 µM [rising, full curve]"
COc1ccccc1-c1ccc(SCc2ccc([N+](=O)[O-])cc2)nn1,29%,"0.116 µM [rising, partial curve, poor fit]","9.2 µM [rising, partial curve]"
O=C(NCCO)c1cccc2c1-c1ccccc1C2=O,31.1%,"32.6 µM [rising, single point]","0.0184 µM [falling, full curve, poor fit]"
COc1ccc(C(=O)NCC(=O)N2CCC(C)CC2)cc1OC,-1.78%,"0.116 µM [falling, full curve, poor fit]",–
S=C(Nc1cccnc1)Nc1cccc2cnccc12,43.8%,"2.91 µM [rising, full curve, poor fit]","18.4 µM [rising, single point]"
Cc1nc(NC(=S)NC(=O)c2cccs2)ccc1Br,-31.7%,"14.6 µM [falling, single point]","2.06 µM [rising, partial curve]"
CCCCOc1ccc(-c2nnc(N)s2)cc1,3.39%,–,–
COc1ccc(-c2cc3nc[nH]c(=O)c3s2)cc1,46.1%,"5.8 µM [rising, single point]",–

# Rewritten with bars between the fields: entries from further up.
Compound | cell number change | AC50 [1] | AC50 [2]
Nc1nonc1-n1nnc(C(=O)N/N=C/c2cc(Br)ccc2O)c1CSC1=NCCS1 | -9.28% | – | 18.4 µM [falling, single point]
COc1ccccc1-c1ccc(SCc2ccc([N+](=O)[O-])cc2)nn1 | 29% | 0.116 µM [rising, partial curve, poor fit] | 9.2 µM [rising, partial curve]
O=C(NCCO)c1cccc2c1-c1ccccc1C2=O | 31.1% | 32.6 µM [rising, single point] | 0.0184 µM [falling, full curve, poor fit]
CCCCOc1ccc(-c2nnc(N)s2)cc1 | 3.39% | – | –

# Further compounds

Compound,cell number change,AC50 [1],AC50 [2]
CCCCCC1CC(CC/C(C)=N/NC(N)=O)C(=O)O1 (configuration not stated),-17.7%,–,"16.4 µM [falling, single point]"
CCOc1ccc(/C=N/NC(=O)c2c(-c3ccccc3)noc2C)cc1,9.89%,–,"0.116 µM [falling, partial curve, poor fit]"
N#C/C(=C\c1ccc(Cl)s1)C(=O)N1CCN(c2ccccc2)CC1,-16.7%,–,"2.59 µM [falling, partial curve]"
O=C(CN1C(=O)c2ccccc2S1(=O)=O)NCCSCc1c(F)cccc1Cl,11.2%,–,–
O=C(O)c1ccccc1NCc1cccs1,7.92%,–,"3.26 µM [rising, full curve]"
CN(C)CCN(C)Cc1ccc2c(c1)Cc1ccccc1-2,-32.8%,"0.731 µM [falling, partial curve, poor fit]",–
COc1ccccc1CN1CC(C(=O)N(C)Cc2ccc(C)o2)CCC1=O (configuration not stated),–,–,"0.411 µM [falling, partial curve]"
CCc1cccc(NC(=O)Cn2c(-c3ccccc3)cc(C(C)=O)c2C)c1,12.9%,–,"11.6 µM [rising, partial curve]"
COc1cc(/C=C/c2noc(-c3ccccc3O)n2)cc(OC)c1OC,-10.1%,–,"4.11 µM [rising, single point]"
CCOC(=O)c1oc2cccc(O)c2c1CN(Cc1ccccc1)C(C)=O,8.4%,–,"4.11 µM [falling, full curve]"
Cc1ccc(NC(=O)CCc2nnc3ccc(N4CCC5(CC4)OCCO5)nn23)cc1F,-23.2%,–,"0.231 µM [falling, full curve]"
CCn1c(=O)c2c(nc(SCC(=O)N3CCC(C)CC3)n2C)n(C)c1=O,0.435%,–,"29.1 µM [falling, single point]"
COc1ccc(CCNC(=O)c2ccc(N3CCCCS3(=O)=O)cc2)cc1OC,–,"4.11 µM [rising, single point]","29.1 µM [rising, single point]"
CCCCCN(C(=O)CCC(=O)OCC(=O)N(C)Cc1ccccc1C)c1c(N)n(CCCC)c(=O)[nH]c1=O,10%,–,–
Cc1nc2cc(-c3ccc(F)cc3)[nH]n2c(=O)c1C,-5.25%,–,"0.231 µM [rising, full curve, poor fit]"
COCCN(C(=O)CSCC(=O)Nc1ccc(C)cc1)c1c(N)n(CC(C)C)c(=O)[nH]c1=O,-8.03%,–,"0.00461 µM [rising, full curve, poor fit]"
COC(=O)c1ccc([C@H]2C=C(C(=O)O)O[C@@H](OCc3ccc(CO)cc3)C2)cc1,12.3%,–,"8.2 µM [rising, partial curve]"
O=C(NCCCn1ccnc1)c1cn(-c2ccccc2)nc1-c1ccccc1,-6.37%,"0.116 µM [falling, full curve, poor fit]","18.4 µM [rising, partial curve]"
CC(C)CC(C(=O)Nc1ccc2c(c1)OCCO2)N1C(=O)c2ccccc2C1=O (configuration not stated),-17.7%,–,–
O=C(NCCO)c1nc(C(=O)c2ccc(Cl)cc2)c2ccccc2n1,-12.6%,–,–

Compound,cell number change,AC50 [1],AC50 [2]
Cc1cnc(C(=O)OCC(=O)NCc2ccccc2)cn1,-80.7%,"14.6 µM [falling, partial curve, poor fit]","14.6 µM [falling, partial curve]"
O=C1/C(=C\c2ccc(O)cc2)SC(=S)N1/N=C/c1ccc(O)cc1,-12.7%,–,"9.2 µM [falling, partial curve]"
Cc1cc(C)n2nc(SCC(=O)c3ccc[nH]3)nc2n1,15.1%,–,"1.46 µM [rising, full curve]"
CCc1ccc(Nc2nnc(SCC(=O)Nc3sccc3C(N)=O)s2)cc1,8.07%,–,"1.03 µM [rising, full curve, poor fit]"
Cc1ccc(/C=C2/SC(=S)N(CCC(=O)N3CCOCC3)C2=O)cc1,–,–,"29.1 µM [rising, single point]"
C=CCN1/C(=C2/SC(=S)N(C)C2=O)Sc2ccccc21,-2.38%,–,"9.2 µM [falling, partial curve]"
COc1ccc(S(=O)(=O)Nc2ccccc2C(F)(F)F)cc1,5.54%,–,–
CCOC(=O)c1ccc(CC2S/C(=C(\C#N)C(C)=O)NC2=O)cc1 (configuration not stated),–,"6.51 µM [falling, single point]","1.46 µM [falling, full curve]"
CNCCCOc1ccc(C)cc1OC,21.7%,–,"4.11 µM [rising, partial curve]"
COc1ccc(NC(=O)CN(C)C(=O)c2oc3c(ccc4ccccc43)c2C)cc1,10.3%,–,"0.092 µM [rising, full curve, poor fit]"
CCOC(=O)c1c(C)[nH]c(C(=O)OCC(=O)Nc2sccc2C(N)=O)c1C,-52.3%,"16.4 µM [falling, single point]","20.6 µM [falling, partial curve]"
Cc1ccc(C)c(OCCC(=O)NCCc2ccc(S(N)(=O)=O)cc2)c1,7.8%,"0.411 µM [rising, single point]","1.64 µM [rising, partial curve]"
Cc1ccc(SCCNC(=O)c2ccccc2F)cc1,19.4%,–,"18.4 µM [rising, single point]"
CN(C)C(=O)c1c(-c2ccccc2)oc2ccc(O)cc12,0.136%,–,"3.26 µM [rising, full curve, poor fit]"
CC(C)n1c(SCC(=O)Nc2ccccc2N2CCCCC2)nc2c1c(=O)n(C)c(=O)n2C,13.8%,–,–
Cc1ccc(S(=O)(=O)N2CCCC2C(=O)O)cc1 (configuration not stated),31.1%,"29.1 µM [rising, single point]",–
COc1ccc(Nc2nnc(SCC(=O)/C=C3/N(C)c4ccccc4C3(C)C)s2)cc1,-50.4%,"1.64 µM [falling, single point]","20.6 µM [falling, single point]"
NC(=O)c1ccc(NC(=O)COC(=O)C2(c3cccc(F)c3)CCCC2)cc1,66.4%,"29.1 µM [rising, single point]","18.4 µM [rising, single point]"
Cn1c(=O)c2c(n(Cc3ccccc3)c1=O)NC(=O)C2CC(=O)NCc1cccc(Cl)c1 (configuration not stated),–,"0.731 µM [falling, single point]",–
